# Test results taken from publication PMC12040169 (PLOS Biology, 2025).
# Some of the results follow.
# System: T1, CTL2-GFP (C. trachomatis L2/434/Bu, GFP-expressing)
# T1 construct: L2/434/Bu, GFP-expressing
# Set-up: species or system HeLa; Intracellular C. trachomatis growth in HeLa cells, bulk GFP fluorescence relative to DMSO
# Conditions: bulk GFP, single well; 28.5 h, 10 µM; inhibitor
row,SMILES,% of control remaining [%]
1,COCCNC(=O)C(Cc1ccc(-c2ccc(S(C)(=O)=O)cc2)cc1)C1CCN(C(=O)OC(C)(C)C)CC1 (stereo not drawn) [CBK173129],83.2733
2,Cn1ccnc1C(NC(=O)N1CCOc2ccc(Cl)cc2C1)C1CC1 (stereo not drawn) [CBK307212],138.417
3,CSc1ccccc1C(=O)Nc1sc2c(c1C#N)CCN(C(C)=O)C2 [CBK304183],91.5942
4,CSc1nc(C(=O)N2CCCCC2c2cccc(F)c2)cs1 (stereo not drawn) [CBK306732],80.6825
5,Cl/C(=C\c1ccccc1)CN1CCOCC1 [CBK261892],100.897
6,O=C(NCCCN1CCOCC1)/C(=N\O)c1ccccn1 [CBK288366],132.28
7,COc1ccc(C(=O)CSc2nnc(-c3ccccc3)c3ccccc23)cc1OC [CBK297088],139.16
8,Cc1cc(C(=O)N2CCC(F)CC2)n[nH]1 [CBK200277],110.395
9,CCOc1ccc(C(=O)NC(=S)Nc2sc(C)c(C)c2C#N)cc1Cl [CBK268900],134.542
10,COc1cc(/C=C2\SC(=S)N(Cc3cccnc3)C2=O)ccc1OCc1cccc2ccccc12 [CBK264624],95.9005
11,O=C(c1cccs1)N1CCCC1c1nc2ccccc2[nH]1 (stereo not drawn) [CBK284006],164.768
12,CN1CCOC(CNc2nc(-c3ccncc3)nc3c2CCC3)C1 (stereo not drawn) [CBK304890],48.7707
13,COc1ccc(C(C)c2cc3c(cc2OCCO)OCO3)c(F)c1 (stereo not drawn) [CBK200111],96.3869
14,CN(C)c1nc(N2CCN(c3ccc(F)cc3)CC2)cc(C(F)(F)F)n1 [CBK007432],84.6451
15,O=C(CC1Oc2ccccc2NC1=O)Nc1ccc2c(c1)CN(Cc1ccccc1)C2 (stereo not drawn) [CBK285991],125.264
16,CCC(=O)Nc1ccc(-c2csc(N3CCCC(C)C3)n2)cc1 (stereo not drawn) [CBK306478],107.001
17,CN(C)c1ccc(/C=C/CN2CCN(c3ccc([N+](=O)[O-])cc3)CC2)cc1 [CBK261904],123.261
18,NS(=O)(=O)c1ccc(NC(=O)CCCN2C(=O)/C(=C/c3ccc(Cl)cc3)SC2=S)cc1 [CBK261302],105.555
19,COC(=O)c1sc2cc(C(F)(F)F)cnc2c1-c1cccnc1 [CBK089885],116.685
20,Nc1ccc2ccc(-c3ccncc3)nc2n1 [CBK067622],128.148
21,O=C(Nc1nnc(-c2ccc3c(c2)OCCO3)o1)c1ccccc1F [CBK287405],112.231
22,Cc1ccc(NS(=O)(=O)c2cc(C(=O)N3CCN(C)CC3)ccc2C)cc1C [CBK269268],136.732
23,COc1cccc(CNC(=O)CCc2nc3ccccc3[nH]2)c1 [CBK288003],108.424
24,O=C1CCCC2=C1C(c1ccc(OCc3ccccc3)cc1)c1c([nH][nH]c1=O)N2 (stereo not drawn) [CBK288149],122.159
25,CC(C)(C)c1ccc(S(N)(=O)=O)cc1NC(=O)Nc1cccc(F)c1 [CBK093643],93.0131
26,CCn1nc(CO)c2c1CCN(CC(=O)NCc1cccs1)C2 [CBK307638],119.259

row,SMILES,% of control remaining [%]
1,CC(C)(CC(=O)O)CC(=O)N1CCCC1c1nc(-c2ccccc2)c2ccccn12 (stereo not drawn) [CBK046399],100
2,N#Cc1ccc(C(=O)N2CC[C@H]3NC(=O)N(c4ccccc4)C(=O)[C@H]32)cc1 [CBK289282],134.295
3,Fc1ccc(-c2noc(C3CCN(CCc4ccccc4)CC3)n2)cc1 [CBK051457],111.584
4,CCN(CC)CCCOC1(C)SC(NC2CCCCCC2)=NC1=O (stereo not drawn) [CBK113510],143.867
5,O=C(CSc1cnn[nH]1)Nc1ccccc1F [CBK269903],97.016
6,CS(=O)(=O)c1ccc(-c2ccc3c(c2)CN(C2CCN(C(=O)c4ccccc4)CC2)CCO3)cc1 [CBK169265],111.116
7,Fc1ccc(-c2cn3ccnc3c(NC3CC3)n2)cc1F [CBK066692],185.674
8,Cc1ccc(CNC(=O)c2ccc3c(c2)nc(N2CC[C@H](O)C2)n3C)s1 [CBK306837],138.645
9,O=C(c1sccc1Br)N1CCN(Cc2ccc3c(c2)OCO3)CC1 [CBK074730],47.4343
10,CC1CCN(C(=O)C[C@@H]2O[C@H](CNC(=O)C3CC3)[C@@H](O)[C@H]2O)CC1 [CBK288926],141.078
11,Nc1cc2cccnc2c(-c2ccc3c(c2)CCO3)n1 [CBK081173],128.849
12,Nc1cc2cccnc2nc1-c1ccc(OC(F)(F)F)cc1 [CBK067616],100.599
13,CCNS(=O)(=O)c1ccc2c(c1)N(Cc1n[nH]c(CC)n1)CC2 [CBK306434],85.1024
14,Nc1nc(NCCOc2ccccc2F)cc(C2CCOC2)n1 (stereo not drawn) [CBK306559],141.799
15,Cc1ccc(N(CC(=O)N/N=C2\C(=O)Nc3ccccc32)S(=O)(=O)c2ccccc2)cc1 [CBK262169],79.9783
16,CC(=O)NCCSc1cccc(C(F)(F)F)n1 [CBK105299],128.373
17,O=C1NC2CCCCC2NC1CC(=O)N1CCN(C(c2ccccc2)c2ccccc2)CC1 (stereo not drawn) [CBK269201],145.193
18,COc1ccccc1-c1ccc(CN(C)Cc2ccccc2N2CCOCC2)cc1 [CBK286108],83.7407
19,O=[N+]([O-])c1ccc(/C=N/CCCN2CCOCC2)cc1 [CBK261058],121.962
20,COc1ccc(C(=O)N2CCC3(CC2)NC(=O)c2ccc(C(F)(F)F)cc2O3)cc1OC [CBK166265],167.358
21,CCn1nc2c(C)cc3cc(OC)ccc3n2c1=O [CBK283823],193.256
22,Cc1ccc2cc(CN(Cc3ccccc3)C(=O)NCc3c(Cl)cccc3Cl)c(=O)[nH]c2c1C [CBK132088],128.883
23,Cc1nnc2n1CCN(CC1CCCCO1)C2 (stereo not drawn) [CBK304267],126.77
24,COc1cccc(CCN2CCC(C(=O)NC(C)c3cccc4ccccc34)CC2)c1 (stereo not drawn) [CBK148650],84.4196
25,CC(C)(C)OC(=O)N1CCN(c2ccc(N)cn2)CC1 [CBK003463],102.354
26,Cc1c(C(=O)NC2(c3ccc(F)cc3)CCCC2)cnn1C [CBK283978],121.521

row,SMILES,% of control remaining [%]
1,Cc1cc(C)n(CC(=O)N2CCC(Nc3cccnn3)CC2)n1 [CBK306234],145.63
2,CC(C)(C)NC(=O)C[C@@H]1CCNC[C@@H]1Cc1cc(-c2ccc(F)cc2)on1 [CBK288802],132.57
3,Cc1ccc(CN[C@@H]2CCC(=O)N[C@H]2c2cc(F)cc(F)c2)o1 [CBK283128],112.681
4,CCCC/C=C/c1cnc(N)c(Nc2ccc3[nH]ccc3c2)n1 [CBK063811],201.209
5,Cc1ccc(CO)cc1NC(=O)[C@@H]1CN(Cc2ccccc2)C[C@H]1C(=O)c1ccc(F)cc1 [CBK286431],119.314
6,Nc1cc2cccnc2c(-c2cccc(C(F)(F)F)c2)n1 [CBK081177],118.593
7,COc1ccc2c(ccn2CC(=O)NC[C@H]2CC[C@H](C(=O)O)CC2)c1 [CBK286687],95.5974
8,COCC(=O)NC(Cc1ccsc1)c1nc(C)cs1 (stereo not drawn) [CBK282804],101.842
9,OCCN1CCN(c2nc(-c3ccc4c(c3)OCO4)cn3ccnc23)CC1 [CBK037443],159.84
10,Nc1ncc(-c2ccco2)nc1N1CCC(C(=O)O)CC1 [CBK063440],108.411
11,COc1cccc(CNCCO)c1OCc1ccccc1F [CBK266594C],128.858
12,COC(=O)Cn1cc(CN2CC3CCCN3C[C@H]2C)c2ccccc21 (stereo partly drawn) [CBK285436],116.618
13,O=C(COc1ccc([N+](=O)[O-])cc1)Nc1ccc(CN2CCCCC2)cc1 [CBK266204],120.493
14,O=C(c1cncnc1)N1CCC2(CCCNC2)C1 (stereo not drawn) [CBK153237C],117.831
15,COc1cccc(CN2CCN(C(=O)N3CCCCC3)[C@@H](C)C2)c1 [CBK284266],151.165
16,CCn1c(N2CCC(C(=O)NC3CC3)CC2)nc2ccccc21 [CBK283922],119.274
17,O=[N+]([O-])c1ccc(-c2nc3ccc(Br)cn3[n+]2[O-])cc1 [CBK262335],129.148
18,Nc1ncc(-c2ccc(F)cc2)c(C2CCCN(C(=O)CCc3ccc(F)cc3)C2)n1 (stereo not drawn) [CBK286092],92.3414
19,O=C(Nc1ccc(S(=O)(=O)Nc2ccc(Cl)cc2)cc1)c1ccc(Cn2cc(Br)cn2)o1 [CBK265764],36.4441
20,CC(=O)Nc1ccc(N2C(=O)CC(NCCCN3CCOCC3)C2=O)cc1 (stereo not drawn) [CBK265236],109.982
21,CCN1C(=O)CC2(C1=O)C(=O)N(Cc1nnc(-c3ccc(C)cc3)o1)c1ccc(OC)cc12 (stereo not drawn) [CBK075586],118.855
22,O=C(O)c1cccc(NS(=O)(=O)c2ccc(Br)cc2C(F)(F)F)c1 [CBK155724],138.548
23,O=C(O)CCCNC(=O)COc1ccccc1OCC(=O)NCCCC(=O)O [CBK296089],123.535
24,CCc1cc(=O)[nH]c(-c2ccc(N3CCCC3C(=O)N(C)C)nc2)n1 (stereo not drawn) [CBK304197],119.611
25,N#Cc1cccc(-n2cc(-c3ccc(Br)cc3F)nn2)c1 [CBK113143],141.166
26,Cc1[nH]c2ccccc2c1C(=O)N1CCC(CC(=O)N2CCN(c3ccccc3)CC2)CC1 [CBK286033],113.084

# Arranged by molecular weight (rising): some entries from above.
row,SMILES,% of control remaining [%]
10,Nc1ncc(-c2ccco2)nc1N1CCC(C(=O)O)CC1 [CBK063440],108.411
11,COc1cccc(CNCCO)c1OCc1ccccc1F [CBK266594C],128.858
12,COC(=O)Cn1cc(CN2CC3CCCN3C[C@H]2C)c2ccccc21 (stereo partly drawn) [CBK285436],116.618
5,Cc1ccc(CO)cc1NC(=O)[C@@H]1CN(Cc2ccccc2)C[C@H]1C(=O)c1ccc(F)cc1 [CBK286431],119.314
